This assay has as its system B6C3F1 mice, B16 melanoma ip, median survival T/C. Nature of the assay: NCI In Vivo Anticancer Drug Screen. Data for tumor model B16 Melanoma (intraperitoneal) in B6C3F1 mice. The note with it: T/C endpoint: median survival time, schedule: Q01DX009 (ip), higher T/C = longer survival. The method, then:
The antitumor activity of compounds was measured in mice bearing transplantable tumors. Survival or tumor size were measured and the results are expressed as the measurement made in the treated group (T) divided by the measurement made in the vehicle treated control group (C). The tumor model used in this assay is B16 Melanoma (intraperitoneal) in B6C3F1 mice

Setting [1] is: dose: 25.0 mg/kg/injection, vehicle: saline with Tween-80.
[2] abbreviates: dose: 100.0 mg/kg/injection, vehicle: saline with Tween-80.
Where [3] appears, read: dose: 100.0 mg/kg/injection, vehicle: Klucel (hydroxypropylcellulose) (HPC).
Setting [4] is: dose: 200.0 mg/kg/injection, vehicle: Klucel (hydroxypropylcellulose) (HPC).
Setting [5] is: dose: 200.0 mg/kg/injection, vehicle: saline with Tween-80.
Where [6] appears, read: dose: 50.0 mg/kg/injection, vehicle: saline.
Setting [7] is: dose: 100.0 mg/kg/injection, vehicle: saline.
Setting [8] is: dose: 24.0 mg/kg/injection, vehicle: water.
Where [9] appears, read: dose: 400.0 mg/kg/injection, vehicle: saline with Tween-80.
The mark [10] stands for this setting: dose: 200.0 mg/kg/injection, vehicle: saline.
Setting [11] is: dose: 12.5 mg/kg/injection, vehicle: saline with Tween-80.
[12] abbreviates: dose: 400.0 mg/kg/injection, vehicle: saline.
Setting [13] is: dose: 50.0 mg/kg/injection, vehicle: saline with Tween-80.

In PubChem BioAssay AID200 (DTP/NCI, 2004) one finds T/C and survivor count data, which are given here for 34 molecules.

The list shows only some results of the screen, not a fair sample: it gathers tests that were run many times, whatever their T/C, doses with no T/C, and many T/C values between a quarter and a half above the control. Further doses and runs are listed elsewhere. T/C gives the treated animals as a percentage of the vehicle group. Some doses have a count of surviving animals in place of a T/C: the source holds a T/C of zero for them, seemingly a mark for toxic or unscored doses. Some doses without a T/C left all or most animals alive at the check, yet need not have been tolerated: survival well below the control is almost never listed, so the zero probably covers shortened survival too. Survivors were counted at the toxicity check, usually on the fifth day, unless a day is given; later deaths do not show. Schedules are NCI's codes, read here as Q, the interval in days (D) or hours (H), X, the number of doses. Some entries hold several experiments; their values stand side by side, smallest first. Where survival is the endpoint, this PubChem deposit counts one and a half times the control or more as active, and values a quarter to a half above the control carry no call in these data; other NCI protocols may use other cut-offs. Some T/C values are followed by the survivors on the day toxicity was checked, most often the fifth; without a count, all were alive then.

Turning to `C1CC[N-]CC1.[Cl][Pt+2][Cl].[NH-]C1CC1`, the T/C by setting is: (dose: 3.12 mg/kg/injection, vehicle: saline with Tween-80) 134 % of control; (dose: 6.25 mg/kg/injection, vehicle: saline with Tween-80) 140 % of control; (dose: 12.5 mg/kg/injection, vehicle: water) 128 % of control; (dose: 25.0 mg/kg/injection, vehicle: water) 139 % of control. Further, the survivor count is given as 10 of 10 under setting [1] and 4 of 10 (dose: 50.0 mg/kg/injection, vehicle: water).

Regarding `C=C(C)C(=O)OC1C/C(CO)=C\C(O)C/C(C)=C/C2OC(=O)C(=C)C21` (centres undefined), under “dose: 20.0 mg/kg/injection, vehicle: saline + alcohol”, the T/C was 126 % of control.

Consider `O=C1CN(CO)C(=O)N1CO`, for which, for the setting “dose: 400.0 mg/kg/injection, vehicle: Klucel (hydroxypropylcellulose) (HPC)”, the survivor count is given as 9 of 10.

Regarding `N#Cc1c(N)[nH]c2ccc(Sc3ccccc3)cc12`, the survivor count under setting [2] was 8 of 10.

Turning to `CCOC(=O)c1ccc(NN=NCCF)cc1`, the T/C (dose: 6.25 mg/kg/injection, vehicle: distilled water + Tween-80) was 130 % of control. In addition, the survivor count (dose: 50.0 mg/kg/injection, vehicle: distilled water + Tween-80) was 4 of 10.

On to `Cc1ccc2c(ccc(CC(=S)[S-])[n+]2C)c1`, for which the survivor count (dose: 50.0 mg/kg/injection, vehicle: Klucel (hydroxypropylcellulose) (HPC)) was 10 of 10; the survivor count under setting [3] is 10 of 10; the survivor count under setting [4] was 3 of 10 and 10 of 10.

Regarding `CCS(=O)(=O)OCCCCOS(=O)(=O)CC`, the survivor count is, setting by setting: under setting [2], 7 of 10; under setting [5], 0 of 10.

For the molecule `NCCSC(C[N+](=O)[O-])c1ccccc1Cl` (centres undefined), the survivor count reads like this: under setting [6], 6 of 10; under setting [7], 0 of 10.

Regarding `COc1cccc2c1C(=O)c1c(O)c3c(c(O)c1C2=O)CC(O)(/C(C)=N/NC(=O)CCC(=O)N/N=C(\C)C1(O)Cc2c(O)c4c(c(O)c2C(OC2CC(N)C(O)C(C)O2)C1)C(=O)c1c(OC)cccc1C4=O)CC3OC1CC(N)C(O)C(C)O1` (centres undefined), the T/C was 147 % of control (dose: 0.75 mg/kg/injection, vehicle: water); 130 % of control (dose: 12.0 mg/kg/injection, vehicle: water); 133 % of control under setting [8]. Also, the survivor count under setting [8] is on record as 10 of 10.

Take `Nc1nc2nc[nH]c2c(=O)[nH]1`: the survivor count under setting [5] is given as 10 of 10.

`O=C1OCC2(C(=O)O)C(=O)OCC12` (centres undefined): the survivor count under setting [9] is 8 of 10.

Consider `C=C(NC(=O)C(=C)NC(=O)c1csc(C2=NC3c4csc(n4)C4NC(=O)c5csc(n5)C(C(C)(O)C(C)O)NC(=O)C5CSC(=N5)/C(=C/C)NC(=O)C(C(C)O)NC(=O)c5csc(n5)C3(CC2)NC(=O)C(C)NC(=O)C(=C)NC(=O)C(=C)NC(=O)C(C(C)C)NC2C=Cc3c(C(C)O)cc(nc3C2O)C(=O)OC4C)n1)C(N)=O` (centres undefined), for which the T/C under setting [7] was 126 % of control.

Consider `Cc1ccc2c(c1)n([O-])c1cc(Cl)ccc1[n+]2=O`, for which the T/C under setting [2] is 125 % of control [9 of 10 alive].

For the molecule `COc1ccc(CC(N)c2ccccc2)cc1` (centres undefined), the survivor count under setting [10] is recorded as 0 of 10.

For `[NH-]C(CCC(N)=O)C(=O)O.[NH-]C(CCC(N)=O)C(=O)O.[Zn+2]` (centres undefined), the survivor count under setting [2] is recorded as 6 of 10.

Turning to `CC(=O)OC1=NC(C)c2c1cc(OC(C)=O)[nH]c2=O` (centres undefined), the survivor count was 2 of 10 under setting [3]; 0 of 10 and 1 of 10 under setting [4].

As for `CCN(CC)CCC(=O)c1ccccc1`, for the setting “dose: 100.0 mg/kg/injection, vehicle: suspension in saline”, the survivor count was 1 of 10.

For `CN(C)CCN1C(=O)c2cccc3cc(N)cc(c23)C1=O`, the T/C (dose: 16.0 mg/kg/injection, vehicle: saline with Tween-80) is 137 and 139 % of control. The survivor count is on record as 9 of 10 (dose: 32.0 mg/kg/injection, vehicle: acid diluted with saline) and 10 of 10 (dose: 32.0 mg/kg/injection, vehicle: saline with Tween-80).

Consider `CC[n+]1ccc2c(C)c3[nH]c4ccc(O)cc4c3c(C)c2c1`, for which the T/C is, setting by setting: (dose: 0.78 mg/kg/injection, vehicle: saline) 129 % of control; (dose: 1.56 mg/kg/injection, vehicle: saline) 140 % of control. Besides, the survivor count was 5 of 8 (dose: 12.5 mg/kg/injection, vehicle: saline); 1 of 8 (dose: 25.0 mg/kg/injection, vehicle: saline); 2 of 8 under setting [6].

As to `Cc1c2ccccc2cc2cccc[n+]12`, the survivor count is, setting by setting: (dose: 40.0 mg/kg/injection, vehicle: saline) 10 of 10; (dose: 80.0 mg/kg/injection, vehicle: saline) 0 of 10.

Regarding `NC(N)=NC(N)=Nc1ccc(-c2ccc(N=C(N)N=C(N)N)cc2)cc1`, the survivor count under setting [1] is 10 of 10.

`Cc1ccc(Cl)c2ccccc12`: the survivor count is, setting by setting: under setting [11], 10 of 10; under setting [2], 9 of 10; under setting [5], 10 of 10; under setting [9], 2 of 10 and 8 of 10.

As for `O=[n+]1c2ccccc2n([O-])c2cc(Cl)ccc21`, the survivor count runs as follows: under setting [5], 9 of 10; under setting [9], 1 of 10.

`NC(Cc1ccc(O)c(Cl)c1)C(=O)O` (centres undefined): the survivor count under setting [12] is given as 10 of 10.

Turning to `CC(SC(C)C(=O)N/N=C/c1ccc(C#N)cc1)C(=O)N/N=C\c1ccc(C#N)cc1` (centres undefined), the survivor count is 10 of 10 under setting [7] and 10 of 10 under setting [12].

For the molecule `COc1ccc(/C=C/C(=O)c2cc(C(=O)O)c(OC)cc2OC)cc1OC`, the survivor count under setting [9] was 5 of 10.

For the molecule `CCCCCCCCCCCCO[P+](=O)OCCCCCCCCCCCC`, the survivor count under setting [5] is 8 of 10.

With `C/C(=N\NC(=O)c1ccncc1)c1ccc(Cl)cc1`, the survivor count runs as follows: (dose: 10.0 mg/kg/injection, vehicle: saline with Tween-80) 1 of 10; (dose: 20.0 mg/kg/injection, vehicle: saline with Tween-80) 1 of 10; (dose: 40.0 mg/kg/injection, vehicle: saline with Tween-80) 0 of 10.

With `CC(C)CC(=O)NC(C(=O)NC(C(=O)NC(CC(C)C)C(O)CC(=O)NC(C)C(=O)NC(CC(C)C)C(O)CC(=O)O)C(C)C)C(C)C` (centres undefined), the survivor count by setting is: under setting [3], 10 of 10; under setting [4], 10 of 10.

Regarding `Nc1cc2c3c(cccc3c1)C(=O)N(CCN1CCCC1)C2=O`, the T/C runs as follows: under setting [1], 138 and 143 % of control; under setting [13], 149 % of control. Besides, the survivor count under setting [2] is 10 of 10.

With `COc1ccc(OC)c(Cc2cnc3nc(N)nc(N)c3c2C)c1`, the survivor count (dose: 100.0 mg/kg/injection, vehicle: water) is 7 of 10.

`CCC1=C2C(=O)c3ccccc3C2=C(C)S(=O)(=O)O1`: the survivor count runs as follows: under setting [11], 10 of 10; under setting [1], 7 of 10; under setting [13], 0 of 10; under setting [2], 0 of 10.

Consider `NCCCNCCCCNC(=O)C(O)NC(=O)CC(O)CCCCN=C(N)N` (centres undefined), for which the survivor count is on record as 1 of 10 under setting [10] and 0 of 10 under setting [12].

With `CC(=O)NC(CCc1ccc(Cl)c(Cl)c1)c1cccc(O)c(=O)c1` (centres undefined), the survivor count under setting [3] is on record as 10 of 10.
